Results reported in the supplement of paper PMC7646827.
Where a name gives a salt, the structure may show the parent alone. Repeats are few or missing, and single values can be far off.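 All cells are established human bladder cancer lines, one of them grown from a patient-derived xenograft. Viability was read by a luminescent ATP assay as percent inhibition versus vehicle over a seven-point dilution series; the paper calls scores above 59 very active, 30–59 active, 21–29 semi-active, 9–20 low active and below 9 inactive.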

Tests used:
Test in all cases: drug sensitivity score DSS3 (score 0-100); higher = more sensitive; extreme values may be limits of the assay
Conditions in all cases: culture: 3D, ultra-low attachment; treatment time: 5 days
UM-UC-3 = test system: UM-UC-3
UM-UC-15 = test system: UM-UC-15
UM-UC-5 = test system: UM-UC-5
UM-UC-1 = test system: UM-UC-1
SW780 = test system: SW780
UM-UC-17 = test system: UM-UC-17
UM-UC-9 = test system: UM-UC-9
BC8149 = test system: BC8149
T-24 = test system: T-24
UM-UC-18 = test system: UM-UC-18
5637 = test system: 5637
SCaBER = test system: SCaBER
TCCSUP = test system: TCCSUP
J82 = test system: J82
UM-UC-12 = test system: UM-UC-12
UM-UC-6 = test system: UM-UC-6
UM-UC-14 = test system: UM-UC-14

| SMILES | drug sensitivity score DSS3 (UM-UC-3) | drug sensitivity score DSS3 (UM-UC-15) | drug sensitivity score DSS3 (UM-UC-5) | drug sensitivity score DSS3 (UM-UC-1) | drug sensitivity score DSS3 (SW780) | drug sensitivity score DSS3 (UM-UC-17) | drug sensitivity score DSS3 (UM-UC-9) | drug sensitivity score DSS3 (BC8149) | drug sensitivity score DSS3 (T-24) | drug sensitivity score DSS3 (UM-UC-18) | drug sensitivity score DSS3 5637 | drug sensitivity score DSS3 (SCaBER) | drug sensitivity score DSS3 (TCCSUP) | drug sensitivity score DSS3 (J82) | drug sensitivity score DSS3 (UM-UC-12) | drug sensitivity score DSS3 (UM-UC-6) | drug sensitivity score DSS3 (UM-UC-14) |
| --- | --- | --- | --- | --- | --- | --- | --- | --- | --- | --- | --- | --- | --- | --- | --- | --- | --- |
| COc1ccccc1S(=O)(=O)Nc1ccc2c(c1)CN(C)C(=O)N2 (max dose 10000 nM) | 0.402 | 0 | 0.265 | 1.4 | 0 | 0 | 0.475 | 0.591 | 0 | 2.91 | 2.12 | 0 | 1.9 | 0 | 0.733 | 0 | 0.84 |
| CC(C)(C)c1ccc(S(=O)(=O)/C=C/C#N)cc1 [Bay 11-7085] (max dose 10000 nM) | 1 | 0 | 0 | 0 | 0 | 0 | 0 | 1.61 | 0.0194 | 10.6 | 2.68 | 0 | 1.44 | 0 | 0.949 | 0 | 0.458 |
| CN[C@@H](C)C(=O)N[C@H](C(=O)N1CCC[C@H]1C(=O)Nc1snnc1-c1ccccc1)C1CCCCC1 [GDC-0152] (max dose 10000 nM) | 0 | 33.2 | 0 | 0 | 0 | 0.1 | 0 | 2.62 | 0 | 0 | 0 | 3.38 | 0 | 0 | 0 | 0 | 0 |
| COC(c1ccccc1)(c1ccccc1)[C@H](Oc1nc(C)cc(C)n1)C(=O)O [Ambrisentan] (max dose 10000 nM) | 1.52 | 0 | 2.32 | 36.1 | 1.57 | 4.03 | 0 | 1.21 | 0 | 8.93 | 4.65 | 0.981 | 9.01 | 0 | 2.9 | 8.53 | 5.79 |
| O=C(NCCS(=O)(=O)c1ccc(C(F)(F)F)cn1)c1ccc(Cl)cc1 [GSK3787] (max dose 10000 nM) | 0 | 0 | 0 | 0 | 0 | 0 | 0 | 0 | 0 | 0 | 0 | 0 | 0 | 0 | 0 | 0 | 0 |
| CCCCCCCCCCCCCCCCn1cc[n+](Cc2ccccc2)c1C [NH125] (max dose 10000 nM) | 1.85 | 5.76 | 0.317 | 1.89 | 0 | 0.497 | 0 | 2.49 | 0 | 0.864 | 3.08 | 2.53 | 4.59 | 0 | 0.182 | 0 | 0.619 |
| O=c1cc(N2CCOCC2)oc2c(-c3ccccc3)cccc12 (max dose 10000 nM) | 1.44 | 33 | 1.15 | 4.32 | 1.97 | 7.35 | 3.66 | 10 | 8.5 | 4.9 | 7.63 | 1.02 | 27.3 | 0.503 | 6.8 | 2.8 | 10.9 |
| COc1cc2c(cc1OCCCN1CCCC1)N=C(N)C21CCC1 [A-366] (max dose 10000 nM) | 0.00585 | 5.43 | 0 | 0 | 0 | 0 | 0 | 0.474 | 0 | 2.99 | 1.02 | 0 | 1.76 | 0 | 0 | 0 | 0.292 |
| CN1CCC(COc2cnc(-c3cccc(Cn4nc(-c5cccc(C#N)c5)ccc4=O)c3)nc2)CC1 (max dose 10000 nM) | 0 | 0 | 0 | 0 | 0 | 0 | 0 | 0 | 0 | 0 | 0 | 0 | 0 | 0 | 0 | 0.0684 | 0.000695 |
| CC1(C)CCC(c2ccc(Cl)cc2)=C(CN2CCN(c3ccc(C(=O)NS(=O)(=O)c4ccc(N[C@H](CCN5CCOCC5)CSc5ccccc5)c(S(=O)(=O)C(F)(F)F)c4)cc3)CC2)C1 [ABT-263 (Navitoclax)] (max dose 10000 nM) | 26.7 | 0 | 37.2 | 54.7 | 32.7 | 46.6 | 22.1 | 59.6 | 16.7 | 29.6 | 70.4 | 39.8 | 65.7 | 16.9 | 49.1 | 29 | 20.8 |
| O=C(O)[C@]1(Cc2cccc(Nc3nccs3)n2)CC[C@@H](Oc2cccc(Cl)c2F)CC1 [MK-5108 (VX-689)] (max dose 10000 nM) | 0.065 | 0 | 0 | 3.92 | 0 | 2.32 | 0.0405 | 0.294 | 0 | 3.57 | 2.96 | 0 | 5.93 | 0 | 0 | 4.18 | 0.954 |
| Cc1cc(-c2ncc(CC(=O)Nc3ccc(-c4cnccn4)cn3)cc2C)ccn1 [LGK-974] (max dose 10000 nM) | 0 | 0 | 0 | 1.29 | 0 | 0 | 0 | 0 | 0 | 0 | 0 | 0 | 2.63 | 0 | 0 | 2.35 | 4.64 |
| Cc1nc(-c2ccc(OCC(C)C)c(C#N)c2)sc1C(=O)O [Febuxostat] (max dose 10000 nM) | 0.162 | 0 | 0 | 0.457 | 0 | 0 | 0 | 0 | 0 | 0.199 | 0.648 | 0 | 1.96 | 0 | 0 | 0 | 0 |
| Nc1nc2cc(-c3ccc4ncc(C(=O)N5CCOCC5)n4c3)ccc2o1 [Serabelisib (INK-1117,MLN-1117,TAK-117)] (max dose 10000 nM) | 0 | 0 | 1.22 | 0 | 0 | 0 | 0 | 0.863 | 0 | 0 | 0 | 0.705 | 0.0721 | 0 | 0.647 | 0 | 0.0319 |
| N#CC(=C(/N)Sc1ccccc1N)/C(C#N)=C(\N)Sc1ccccc1N [U0126-EtOH] (max dose 10000 nM) | 0.283 | 0 | 0 | 0 | 0 | 0 | 0 | 0 | 0 | 4.08e-05 | 0 | 0 | 0 | 0 | 0 | 0 | 0 |
| C[C@]1(c2nc3c(C(N)=O)cccc3[nH]2)CCCN1 [Veliparib (ABT-888)] (max dose 10000 nM) | 0.0586 | 0 | 0 | 0 | 0 | 0 | 0 | 0.789 | 0.0608 | 2.45 | 1.05 | 0 | 1.07 | 0 | 0 | 0 | 0.334 |
| OC(CNCC(O)C1CCc2cc(F)ccc2O1)C1CCc2cc(F)ccc2O1 (stereo not given) [Nebivolol HCl] (max dose 10000 nM) | 0 | 1.56 | 0 | 0 | 0 | 0 | 0 | 0 | 0 | 0 | 0 | 0 | 0 | 0 | 0 | 0 | 0 |
| O=C(Nc1cnn2ccc(N3CCC[C@@H]3c3cc(F)ccc3F)nc12)N1CC[C@H](O)C1 [Larotrectinib (LOXO-101) sulfate] (max dose 10000 nM) | 0 | 1.4 | 0 | 0 | 0 | 0 | 0 | 0 | 0 | 0 | 0 | 0 | 0 | 0 | 0 | 0 | 0 |
| Cc1cccc(-c2nn3c(c2-c2ccnc4ccc(C(N)=O)cc24)CCC3)n1 (max dose 10000 nM) | 0 | 0 | 0 | 0 | 0 | 0 | 0 | 0 | 0 | 0 | 0 | 0 | 0 | 0 | 0 | 0 | 0 |
| CC(C=CC(=O)NO)=CC(C)C(=O)c1ccc(N(C)C)cc1 (stereo not given) [Trichostatin A (TSA)] (max dose 10000 nM) | 8.86 | 13 | 2.03 | 2.27 | 1.34 | 20 | 2.75 | 3.85 | 1.76 | 2.68 | 8.19 | 3.21 | 13.7 | 11.9 | 9.98 | 3.84 | 2.61 |
| CNCc1ccc(-c2[nH]c3cc(F)cc4c3c2CCNC4=O)cc1 (max dose 10000 nM) | 5e-07 | 0 | 0 | 0 | 0 | 0 | 0 | 0 | 1.18 | 0 | 0 | 0.128 | 0.494 | 0.79 | 0 | 0 | 0 |
| CN(CCOc1ccc(CC2SC(=O)NC2=O)cc1)c1ccccn1 (stereo not given) [Rosiglitazone] (max dose 10000 nM) | 0 | 0 | 0 | 0 | 0 | 0 | 0.045 | 0 | 0 | 0 | 0 | 0 | 0 | 0 | 0 | 0 | 0 |
| CC(C)(C)c1cnc(CSc2cnc(NC(=O)C3CCNCC3)s2)o1 (max dose 10000 nM) | 9.88 | 12.1 | 16.7 | 22.2 | 9.49 | 19 | 10.9 | 18.5 | 2.55 | 25.3 | 22.9 | 25.9 | 38.9 | 2.24 | 4.58 | 12.5 | 3.03 |
| COc1cc(NC(=O)c2ccc(-c3ccc(Cl)cc3)o2)cc(OC)c1 (max dose 10000 nM) | 0 | 2.67 | 0 | 0 | 0 | 0 | 0.00408 | 0 | 0 | 0.407 | 0 | 0 | 1.59 | 0 | 0 | 0.923 | 0 |
| C[C@H](Nc1ncnc2[nH]cnc12)c1nc2ccc(F)cc2c(=O)n1-c1ccccc1 [acalisib (GS-9820)] (max dose 10000 nM) | 3.61 | 0 | 0 | 12.3 | 0 | 0 | 0 | 2.4 | 0.389 | 0.247 | 0 | 0.945 | 0.378 | 0.374 | 0.86 | 2.19 | 0.278 |

Ordered by heavy-atom count (descending): some entries from above

| SMILES | drug sensitivity score DSS3 (UM-UC-3) | drug sensitivity score DSS3 (UM-UC-15) | drug sensitivity score DSS3 (UM-UC-5) | drug sensitivity score DSS3 (UM-UC-1) | drug sensitivity score DSS3 (SW780) | drug sensitivity score DSS3 (UM-UC-17) | drug sensitivity score DSS3 (UM-UC-9) | drug sensitivity score DSS3 (BC8149) | drug sensitivity score DSS3 (T-24) | drug sensitivity score DSS3 (UM-UC-18) | drug sensitivity score DSS3 5637 | drug sensitivity score DSS3 (SCaBER) | drug sensitivity score DSS3 (TCCSUP) | drug sensitivity score DSS3 (J82) | drug sensitivity score DSS3 (UM-UC-12) | drug sensitivity score DSS3 (UM-UC-6) | drug sensitivity score DSS3 (UM-UC-14) |
| --- | --- | --- | --- | --- | --- | --- | --- | --- | --- | --- | --- | --- | --- | --- | --- | --- | --- |
| C[C@H](Nc1ncnc2[nH]cnc12)c1nc2ccc(F)cc2c(=O)n1-c1ccccc1 [acalisib (GS-9820)] (max dose 10000 nM) | 3.61 | 0 | 0 | 12.3 | 0 | 0 | 0 | 2.4 | 0.389 | 0.247 | 0 | 0.945 | 0.378 | 0.374 | 0.86 | 2.19 | 0.278 |
| Cc1cccc(-c2nn3c(c2-c2ccnc4ccc(C(N)=O)cc24)CCC3)n1 (max dose 10000 nM) | 0 | 0 | 0 | 0 | 0 | 0 | 0 | 0 | 0 | 0 | 0 | 0 | 0 | 0 | 0 | 0 | 0 |
| O=C(NCCS(=O)(=O)c1ccc(C(F)(F)F)cn1)c1ccc(Cl)cc1 [GSK3787] (max dose 10000 nM) | 0 | 0 | 0 | 0 | 0 | 0 | 0 | 0 | 0 | 0 | 0 | 0 | 0 | 0 | 0 | 0 | 0 |
| COc1cc2c(cc1OCCCN1CCCC1)N=C(N)C21CCC1 [A-366] (max dose 10000 nM) | 0.00585 | 5.43 | 0 | 0 | 0 | 0 | 0 | 0.474 | 0 | 2.99 | 1.02 | 0 | 1.76 | 0 | 0 | 0 | 0.292 |
| CC(C=CC(=O)NO)=CC(C)C(=O)c1ccc(N(C)C)cc1 (stereo not given) [Trichostatin A (TSA)] (max dose 10000 nM) | 8.86 | 13 | 2.03 | 2.27 | 1.34 | 20 | 2.75 | 3.85 | 1.76 | 2.68 | 8.19 | 3.21 | 13.7 | 11.9 | 9.98 | 3.84 | 2.61 |
